The record followed here is article PMC12496174.

By UniProt entry, the sequences of proteins in these tests, tags left out. Where a name states a change or a piece, a line headed by the entry shows the natural chain unless it says otherwise.
UniProt Q7TPB0: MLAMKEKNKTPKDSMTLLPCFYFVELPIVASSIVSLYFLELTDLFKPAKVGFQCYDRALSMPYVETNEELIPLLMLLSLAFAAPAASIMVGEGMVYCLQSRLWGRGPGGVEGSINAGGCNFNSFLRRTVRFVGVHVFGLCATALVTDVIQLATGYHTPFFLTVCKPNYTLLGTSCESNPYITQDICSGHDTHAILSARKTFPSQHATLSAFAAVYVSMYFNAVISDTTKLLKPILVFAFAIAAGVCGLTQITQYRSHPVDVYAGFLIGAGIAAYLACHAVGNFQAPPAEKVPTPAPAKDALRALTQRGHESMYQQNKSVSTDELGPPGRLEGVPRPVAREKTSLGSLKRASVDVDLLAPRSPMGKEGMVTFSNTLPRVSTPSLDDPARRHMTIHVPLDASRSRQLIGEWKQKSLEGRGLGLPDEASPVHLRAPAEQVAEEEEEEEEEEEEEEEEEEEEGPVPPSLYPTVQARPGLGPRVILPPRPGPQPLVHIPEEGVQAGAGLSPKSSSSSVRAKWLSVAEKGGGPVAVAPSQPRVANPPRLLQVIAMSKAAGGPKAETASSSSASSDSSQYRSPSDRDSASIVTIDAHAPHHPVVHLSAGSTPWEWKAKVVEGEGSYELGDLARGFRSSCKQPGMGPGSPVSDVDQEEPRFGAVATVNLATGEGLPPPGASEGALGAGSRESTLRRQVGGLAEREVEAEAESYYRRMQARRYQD

The experiment has as its target T1, BASP1-turboGFP (UniProt Q91XV3).
T1 sequence: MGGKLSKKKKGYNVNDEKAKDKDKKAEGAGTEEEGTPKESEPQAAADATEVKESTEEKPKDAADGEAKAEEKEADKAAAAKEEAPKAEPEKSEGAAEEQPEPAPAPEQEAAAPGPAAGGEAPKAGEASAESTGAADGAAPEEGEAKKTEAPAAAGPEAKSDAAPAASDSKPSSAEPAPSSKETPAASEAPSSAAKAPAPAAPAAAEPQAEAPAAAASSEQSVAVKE
The experiment can be described thus: co-IP; HEK293T cells expressing BASP1-tGFP and ICDm-His (or ICDm-S351A); lysis and washes in Ripa buffer; BASP1 immunoprecipitated with turboGFP antibody overnight at 4°C, Dynabeads Protein A; blot for PLPPR3; steady state or 30 uM Forskolin for 10 min.

These are yes or no findings as the source states them, for the method shown. Binding seen in cells or lysates may run through a third protein. A result given as binding can be weak or reduced; the word gives no strength. Tags and fused reporters may be left off the sequences shown.

Turning to “PLPPR3 ICDm-His (membrane-tagged intracellular domain of PLPPR3) (from UniProt Q7TPB0) (domain or fragment)”, the binding result was “binds”.
